Measurements taken from US11339371B2, “Method for inducing pluripotent stem cells to differentiate into ventricular myocytes in vitro” (Institute of Biophysics, Chinese Academy of Sciences, priority 2012, dated 2022).
At least one structure is not confirmed: it was looked up by name or label, or the drawing left a doubt.

Legend:
IRX-4 = assay: quantitative RT-PCR of ventricle-specific early marker gene IRX-4 at day 14 of differentiation; assay type: cell-based, human; conditions: retinoic acid added during day 5 to day 8 of differentiation
Text: T-Smad1/5/8 represents total Smad1/5/8 proteins. β-actin served as an internal loading control. The histogram in FIG. 1C presents the experimental results of quantitative RT-PCR analysis of IRX-4 gene expression levels at 14 days of differentiation. […] Connected line indicates the cardiac differentiation efficiency of the stem cells under the corresponding inductive conditions. N represents noggin, B represents BMP4; NVa represents differentiated cells cultured in vitamin A-free medium; RA represents retinoic acid; and numbers represent the concentrations (Unit for BMP4 is ng/mL). Data are expressed as relative values compared with the expression level of glyceraldehyde-3-phosphate dehydrogenase (GADPH).
FIG. 2 presents quantitative RT-PCR analysis of the expression levels of the ventricle-specific early marker gene IRX-4 at day 14 in differentiated cultures with various treatments. […] The results of quantitative RT-PCR are indicated as relative values compared with the expression levels of GADPH.
RA represents retinoic acid; RAi represents a retinoic acid inhibitor, BMS189453; NVa represents vitamin A-free medium; The RAR pan-antagonist is BMS493. The results of quantitative RT-PCR are expressed as relative values compared with cTNT expression
2) The role of the BMP pathway in directed differentiation of CM subtypes was analyzed further during cardiac differentiation of stem cells. […]

differentiated CMs = assay: calcium imaging of differentiated CMs by confocal laser scanning microscopy at 60-90 days; assay type: cell-based, human; conditions: 60-90 days of differentiation; retinoic acid treatment, with or without BMP4
Text: FIG. 5 presents images from confocal laser scanning microscopy and simultaneous recordings of APs of calcium activity in differentiated CMs and the classification of the differentiated CMs according to the specific calcium activity patterns in the various types of CMs. […] FIG. 5B presents the proportions of CMs with Ca^2+ sparks, Ca^2+ transients, and Ca^2+ oscillations in different treatments as classified by calcium signaling patterns of the various subtypes of CMs in A. The vertical axis represents the proportions of CMs with the three different calcium activities; RA represents 1 μM retinoic acid; Letter B represents BMP4; NVa represents vitamin A-free medium; N represents noggin; and numbers represent the concentrations (ng/mL).
4) To verify the role of the BMP pathway in regulating the differentiation of VMs from stem cells, calcium activities of cardiomyocytes were recorded with confocal laser scanning microscopy at 60-90 days of differentiation. Calcium activity in VMs clearly differs from that in AMs and nodel cells. Calcium activity in VMs has a higher imaging frequency, known as Ca^+ sparks. […] Thus, comparing the image pattern of calcium activities in CMs is an effective method to distinguish VMs from AMs and nodel cells.

stem cells = conditions: treatment during the middle stage of cardiac differentiation; cited from earlier work

## CC1=C(/C=C/C(C)=C/C=C/C(C)=C/C(=O)O)C(C)(C)CCC1 [retinoic acid, reference compound]
IRX-4
  IRX-4 expression level: repressed
Differentiated CMs
  proportion of cells with Ca+ transients among differentiated CMs: majority of differentiated CMs with retinoic acid treatment had Ca^+ transients
Stem cells
  directed differentiation of stem cells (CM subtype): induces differentiation of stem cells into AMs
